# According to the supplement of paper PMC9015667:
# Counter-ions that a name gives are not always drawn. The list shows a part of the results. Most values come without repeats; read them as rough.
# Test system: M238P (parental melanoma line)
# Experiment: reduction in cell viability relative to untreated/vehicle; higher = more growth inhibition
# Conditions: 200 nM; 72 h
row,Structure (SMILES),reduction in cell viability [%]
1,CCCCc1ccc(NS(=O)(=O)c2ccc(C)c(C(=O)N3CCN(c4cccc(C)c4C)CC3)c2)cc1,< 0
2,COc1ccccc1N1CCN(CC(O)COc2cccc3ccccc23)CC1 (stereo unspecified) [Naftopidil],< 0
3,CN[C@H]1CN(c2ccc3c(=O)c(C(=O)O)cn(-c4nccs4)c3n2)C[C@@H]1OC [Vosaroxin],< 0
4,NC(=O)OCC(COC(N)=O)c1ccccc1 [Felbamate],< 0
5,CC/C(=C(\c1ccc(O)cc1)c1ccc(OCCNC)cc1)c1ccccc1 [Endoxifen],< 0
6,CC[C@H]1OC(=O)[C@H](C)[C@@H](O[C@H]2C[C@@](C)(OC)[C@@H](O)[C@H](C)O2)[C@H](C)[C@@H](O[C@@H]2O[C@H](C)C[C@H](N(C)C)[C@H]2O)[C@](C)(O)C[C@@H](C)CN(C)[C@H](C)[C@@H](O)[C@]1(C)O [Azithromycin],< 0
7,Nc1ccn([C@@H]2CO[C@H](CO)O2)c(=O)n1 [Troxacitabine],< 0
8,COc1cc(N2CCC(N3CCN(C)CC3)CC2)ccc1Nc1ncc(Cl)c(Nc2ccccc2S(=O)(=O)C(C)C)n1,23.6
9,COC(=O)N1CCN(Cc2cccc(NC(=O)Nc3ccc(C)nc3)c2F)CC1 [Omecamtiv mecarbil],< 0
10,COc1ccc(C(=O)CC(=O)c2ccc(C(C)(C)C)cc2)cc1 [Avobenzone],< 0
11,C=CC(=O)N1CCc2ccc(-n3c(=O)ccc4cnc5ccc(-c6cnn(C)c6)cc5c43)cc21,< 0
12,O=c1ccc2ccc(O)c(O)c2o1 [Daphnetin],< 0
13,CO[C@H]1/C=C\C=C(/C)C(=O)NC2=CC(=O)C(NCCN(C)C)=C(C[C@@H](C)C[C@H](OC)[C@H](O)[C@@H](C)/C=C(\C)[C@@H]1OC(N)=O)C2=O [Alvespimycin hydrochloride],66.6
14,O=C(O)c1cc(O)c2c(c1)C(=O)c1cccc(O)c1C2=O [Rhein],< 0
15,Cc1[nH]nc2ccc(-c3cncc(OC[C@@H](N)Cc4ccccc4)c3)cc12,14.2
16,CN1CCCN(C(=O)c2cccc(-c3ccc(/C=C4/C(=O)Nc5ccc(Cl)cc54)o3)c2)CC1,38.9
17,CCCCS(=N)(=O)CCC(N)C(=O)O (stereo unspecified) [Buthionine sulfoximine],< 0
18,Cc1[nH]c(/C=C2\C(=O)Nc3ccccc32)c(C)c1CCC(=O)O [Orantinib],< 0

row,Structure (SMILES),reduction in cell viability [%]
1,C1CCC(C(CC2CCCCN2)C2CCCCC2)CC1 (stereo unspecified) [Perhexiline],< 0
2,Cc1ccc(S(=O)(=O)N[C@@H](Cc2ccccc2)C(=O)CCl)cc1,< 0
3,NC(=O)Cc1cccc(C(=O)c2ccccc2)c1N [Nepafenac],< 0
4,Nc1ncnc2c1c(-c1cccc(OCc3ccccc3)c1)cn2C1CC(CN2CCCC2)C1 (stereo unspecified),6.29
5,N#CN=C(NCCCCCCOc1ccc(Cl)cc1)Nc1ccncc1,61.7
6,O=c1[nH]c(=O)n(C2CCCO2)cc1F (stereo unspecified) [Tegafur],< 0
7,COc1cc2ncnc(Nc3cccc(Br)c3)c2cc1OC,< 0
8,O=C(O)Cc1ccccc1Nc1c(Cl)cccc1Cl [Diclofenac sodium],< 0
9,CS(=O)(=O)c1cc(F)cc2c3c(n(Cc4ccc(Cl)cc4)c12)[C@@H](CC(=O)O)CC3 [Laropiprant],< 0
10,Cc1cnc(Nc2ccc(F)cc2Cl)nc1-c1c[nH]c(C(=O)N[C@H](CO)c2cccc(Cl)c2)c1,26.2
11,O=C(O)c1ccc(-n2nc(-c3ccccc3O)nc2-c2ccccc2O)cc1 [Deferasirox],< 0
12,COCC(=O)NC/C=C/c1ccc2ncnc(Nc3ccc(Oc4ccc(C)nc4)c(C)c3)c2c1,< 0
13,COc1cccc2c1C(=O)c1c(O)c3c(c(O)c1C2=O)C[C@@](O)(C(=O)CO)C[C@@H]3O[C@H]1C[C@H](N)[C@@H](O)[C@H](C)O1 [Epirubicin hydrochloride],64.3
14,Cn1cc(/C=C/C(=O)c2cccc(F)c2)cc1/C=C/C(=O)NO,< 0
15,CC(C)(OCc1nn(Cc2ccccc2)c2ccccc12)C(=O)O [Bindarit],< 0
16,CC[C@H](CO)Nc1nc(NCc2ccccc2)c2ncn(C(C)C)c2n1 [Seliciclib],< 0
17,CC(=O)N1CCN(c2ccc(OCc3nn(C)c(C)c3-c3cccc4c(CCCOc5cccc6ccccc56)c(C(=O)O)n(Cc5cccnc5)c34)cc2)CC1,< 0
18,NCCCC(N)(C(=O)O)C(F)F (stereo unspecified) [Eflornithine Hydrochloride],< 0

# Some of the entries so far, with bars between the fields:
row | Structure (SMILES) | reduction in cell viability [%]
4 | NC(=O)OCC(COC(N)=O)c1ccccc1 [Felbamate] | < 0
14 | O=C(O)c1cc(O)c2c(c1)C(=O)c1cccc(O)c1C2=O [Rhein] | < 0
7 | COc1cc2ncnc(Nc3cccc(Br)c3)c2cc1OC | < 0
